Assay [1] concerns the target Full-length mouse PACRG in pGBKT7 (yeast two-hybrid bait) (mouse) (UniProt Q9DAK2). As to the kind of experiment: two-hybrid.
In assay [2] the target is PACRG/Myc (mouse Pacrg cDNA in pCS2+MT) (mouse) (UniProt Q9DAK2). As to the kind of experiment: co-IP.
The target in assay [3] is His-tagged PACRG (full-length mouse Pacrg in pCDFDuet-1, upstream cloning site) (mouse) (UniProt Q9DAK2). Kind of assay: SEC. For orientation: Size exclusion chromatography separates by hydrodynamic size, large species first.

The chains behind the UniProt entries cited, without tags or fusion partners.
UniProt Q9DAK2, whole entry: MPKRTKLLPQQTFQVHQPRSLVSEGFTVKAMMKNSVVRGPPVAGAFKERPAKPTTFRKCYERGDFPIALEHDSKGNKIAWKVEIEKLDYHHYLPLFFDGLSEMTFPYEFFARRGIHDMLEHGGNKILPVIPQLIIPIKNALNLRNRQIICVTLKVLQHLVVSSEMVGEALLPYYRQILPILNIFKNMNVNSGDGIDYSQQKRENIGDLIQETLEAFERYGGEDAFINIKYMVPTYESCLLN

These are yes or no findings as the source states them, for the method shown. For part of these data: In cells and extracts the contact can be indirect. Some binding calls cover weakened binding; strength is not graded here. For part of these data: Where a sequence is shown, tags or fusion partners need not be part of it.

B1: DNALI1 coding sequence in pGAD-T7 (direct yeast two-hybrid) (protein, UniProt Q8BVN8 1-258)
chain: MIPPADSLLKYDTPVLVSRNTEKRSPTARPLKVTIQQPGPSSTSPQPPKAKLPSTSCVPDPTKQAEEILNAILPPREWVEDTQLWIQQVSSTPSTRMDVVHLQEQLDLKLQQRQARETGICPVRRELYSQCFDELIREVTINCAERGLLLLRVRDEIHMTIAAYQTLYESSVAFGMRKALQAEQGKSDMERKITELETEKRDLERQVNEQKAKCEATEKRESERRQVEEKKHNEEIQFLKRTNQQLKAQLEGIIAPKK
On to B1, for which the binding result in assay [1] is listed as “binds”.

B2: DNALI1/Flag (mouse Dnali1 cDNA in pCS3+FLT) (protein, UniProt Q8BVN8 1-258)
chain: B1 chain
In the case of B2, in assay [2], the binding result is reported as “binds”.

B3: Untagged DNALI1 (full-length mouse Dnali1 in pCDFDuet-1, downstream cloning site) (protein, UniProt Q8BVN8 1-258)
chain: B1 chain
Regarding B3, the binding result in assay [3] is on record as “binds”.
